The exact form of at least one protein or probe is not confirmed. Where cells or extracts were used, other partners may take part. Weaker means in comparison with the reference protein, sequence or condition of that experiment. At least one verdict rests on a figure or table, not on a statement of the authors.
Molecular target: protein tyrosine kinase 7 (PTK7) on CCRF-CEM cells (human) (UniProt Q13308)
Assay: flow cytometry and confocal microscopy (cell uptake)
Details: 100 nM, 12 h, indirect, uptake read-out, Live cells in medium, first 1 h without FBS, 100 nM Cy5 nanostructure, PBS washes, temperature not stated, TDN annealed in 10 mM Tris-HCl pH 8.0, 50 mM MgCl2, protein on the cell surface, folded or branched DNA

Chains of the proteins cited; added tags and fusions are not shown. Residues count along the entry.
UniProt Q13308, 31-1070: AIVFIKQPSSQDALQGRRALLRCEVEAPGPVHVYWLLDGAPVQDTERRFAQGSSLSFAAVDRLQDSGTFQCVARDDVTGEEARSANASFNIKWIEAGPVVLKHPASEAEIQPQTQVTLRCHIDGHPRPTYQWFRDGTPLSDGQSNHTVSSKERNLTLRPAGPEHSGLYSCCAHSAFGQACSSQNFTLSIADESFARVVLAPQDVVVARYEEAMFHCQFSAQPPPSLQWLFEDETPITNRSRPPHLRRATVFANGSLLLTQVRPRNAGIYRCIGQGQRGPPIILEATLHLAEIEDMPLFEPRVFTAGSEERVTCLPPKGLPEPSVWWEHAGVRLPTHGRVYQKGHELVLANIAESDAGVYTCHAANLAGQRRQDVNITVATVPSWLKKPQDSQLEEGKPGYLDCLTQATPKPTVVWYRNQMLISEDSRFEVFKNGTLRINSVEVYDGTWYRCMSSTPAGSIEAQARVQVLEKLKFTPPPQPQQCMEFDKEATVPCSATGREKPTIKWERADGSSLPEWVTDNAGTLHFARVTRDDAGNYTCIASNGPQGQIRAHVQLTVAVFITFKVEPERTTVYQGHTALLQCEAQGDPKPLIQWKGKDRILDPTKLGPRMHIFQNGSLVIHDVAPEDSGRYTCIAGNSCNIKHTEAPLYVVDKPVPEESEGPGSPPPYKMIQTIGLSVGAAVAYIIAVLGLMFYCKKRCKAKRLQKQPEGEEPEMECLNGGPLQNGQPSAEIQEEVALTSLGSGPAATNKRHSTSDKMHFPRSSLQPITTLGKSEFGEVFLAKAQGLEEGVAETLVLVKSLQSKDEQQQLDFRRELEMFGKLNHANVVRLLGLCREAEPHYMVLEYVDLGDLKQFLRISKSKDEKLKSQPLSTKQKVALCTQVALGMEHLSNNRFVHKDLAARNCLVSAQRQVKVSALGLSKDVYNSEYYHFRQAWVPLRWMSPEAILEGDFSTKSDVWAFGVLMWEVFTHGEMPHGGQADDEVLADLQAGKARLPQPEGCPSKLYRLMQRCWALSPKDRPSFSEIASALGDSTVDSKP

Sequence	binding result (uptake low, as in Ramos cells)	binding result (up to 4x uptake of PTK7-negative Ramos cells)
ATTTATCACCCGCCATAGTAGACGTATCACCAGGCAGTTGAGACGAACATTCCTAAGTCTGAA / ACATGCGAGGGTCCAATACCGACGATTACAGCTTGCTACACGATTCAGACTTAGGAATGTTCG / ACTACTATGGCGGGTGATAAAACGTGTAGCAAGCTGTAATCGACGGGAAGAGCATGCCCATCC / ACGGTATTGGACCCTCGCATGACTCAACTGCCTGGTGATACGAGGATGGGCATGCTCTTCCCG [TDN (DNA tetrahedron without aptamer; S1+S2+S3+S4)]	binds more weakly	–
ATTTATCACCCGCCATAGTAGACGTATCACCAGGCAGTTGAGACGAACATTCCTAAGTCTGAA / ATCTAACTGCTGCGCCGCCGGGAAAATACTGTACGGTTAGATTTTTACATGCGAGGGTCCAATACCGACGATTACAGCTTGCTACACGATTCAGACTTAGGAATGTTCG / ACTACTATGGCGGGTGATAAAACGTGTAGCAAGCTGTAATCGACGGGAAGAGCATGCCCATCC / ACGGTATTGGACCCTCGCATGACTCAACTGCCTGGTGATACGAGGATGGGCATGCTCTTCCCG [s-TDN (sgc8c aptamer-modified DNA tetrahedron; S1+S5+S3+S4)]	–	binds

— publication PMC6430458
